From patent US20220347324A1 (Bristol-Myers Squibb, published 2022)
Results are given in words; binding and its absence hold for the method and conditions named. Some entries that bind do so weakly or less than the wild type. Blank lines part the entries; values can stand above or below the binder they belong to.

The chains behind the UniProt entries cited, without tags or fusion partners. Residues count along the entry.
UniProt Q9NZQ7, residues 19-290: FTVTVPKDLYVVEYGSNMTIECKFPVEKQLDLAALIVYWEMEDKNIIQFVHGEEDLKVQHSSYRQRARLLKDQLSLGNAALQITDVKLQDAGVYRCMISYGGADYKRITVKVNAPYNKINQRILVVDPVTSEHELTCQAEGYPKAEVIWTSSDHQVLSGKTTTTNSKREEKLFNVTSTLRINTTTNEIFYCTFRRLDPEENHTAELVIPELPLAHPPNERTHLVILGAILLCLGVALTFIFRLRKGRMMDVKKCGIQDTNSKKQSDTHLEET

Key:
[1] = target: human PD-L1 expressed on cells (hPD-L1-positive L2987 cells, L2987 xenografts, human lung tumor tissue) (human) (UniProt Q9NZQ7); assay: radiotracer cell binding, FIG. 3
[2] = target: human PD-L1 expressed on cells (hPD-L1-positive L2987 cells, L2987 xenografts, human lung tumor tissue) (human) (UniProt Q9NZQ7); assay: cell-associated radioactivity by gamma counter after incubating cells with the tracer on ice, 3 washes
[3] = target: human PD-L1 expressed on cells (hPD-L1-positive L2987 cells, L2987 xenografts, human lung tumor tissue) (human) (UniProt Q9NZQ7); assay: competition on L2987 cells against 64Cu-NODAGA-E01; cold E01 at one concentration (450 nM according to the text), gamma counter
[4] = target: human PD-L1 expressed on cells (hPD-L1-positive L2987 cells, L2987 xenografts, human lung tumor tissue) (human) (UniProt Q9NZQ7); assay: in vivo PET, FIG. 4A
[5] = target: human PD-L1 expressed on cells (hPD-L1-positive L2987 cells, L2987 xenografts, human lung tumor tissue) (human) (UniProt Q9NZQ7); assay: PET image of mice with bilateral L2987 / HT-29 xenografts, summed 0 to 2 h
[6] = target: human PD-L1 expressed on cells (hPD-L1-positive L2987 cells, L2987 xenografts, human lung tumor tissue) (human) (UniProt Q9NZQ7); assay: PET time-activity curves of tumor regions of interest, 0 to 120 min after injection of 64Cu-A02
[7] = target: human PD-L1 expressed on cells (hPD-L1-positive L2987 cells, L2987 xenografts, human lung tumor tissue) (human) (UniProt Q9NZQ7); assay: in vivo PET, competition with 64Cu-A02
[8] = target: human PD-L1 expressed on cells (hPD-L1-positive L2987 cells, L2987 xenografts, human lung tumor tissue) (human) (UniProt Q9NZQ7); assay: in vivo blocking of 64Cu-A02 uptake in L2987 xenografts by unlabeled A02, PET time-activity curves
[9] = target: human PD-L1 expressed on cells (hPD-L1-positive L2987 cells, L2987 xenografts, human lung tumor tissue) (human) (UniProt Q9NZQ7); assay: in vitro autoradiography, 0.025 to 25 nM cold A02 against 0.25 nM 18F-A02 on xenograft and human lung tumor sections
[10] = target: human PD-L1 expressed on cells (hPD-L1-positive L2987 cells, L2987 xenografts, human lung tumor tissue) (human) (UniProt Q9NZQ7); assay: displacement of 0.25 nM 18F-DBCO-A02 from tissue sections by 0.025, 0.25, 2.5 and 25 nM cold A02, autoradiography
[11] = target: human PD-L1 expressed on cells (hPD-L1-positive L2987 cells, L2987 xenografts, human lung tumor tissue) (human) (UniProt Q9NZQ7); assay: in vivo blocking of 64Cu-A02-NODAGA uptake in L2987 xenografts by co-injected unlabeled A02 (3 mg/kg according to the text), PET

B1: 64Cu-E01-NODAGA (designed binder)
chain: GVSDVPRDLEVVAATPTSLLISWRAQLSPSFYYRITYGETGGNSPVQEFTVPNDVMTATISGLKPGVDYTITVYAVTTHGVYFYSPISINYRTPC
modifications: C-terminal cysteine linked by maleimide to NODAGA chelating 64Cu
notes: E01 with C-terminal PC (ADX_5417_E01 w/ N leader and modified C-terminus); also called 64Cu-E01 anti-PD-L1 Adnectin
binding [1]: binds | binding [2]: binds

B3: 64Cu-A02-NODAGA (designed binder)
chain: GVSDVPRDLEVVAATPTSLLISWSYDGPIDRYYRITYGETGGNSPVQEFTVPPDQKTATISGLKPGVDYTITVYAVRLEEAHYNREFPISINYRTPC
modifications: C-terminal cysteine linked by maleimide to NODAGA chelating 64Cu
notes: A02 with C-terminal PC; also called NODAGA-64Cu-labeled A02 anti-PD-L1 Adnectin
binding [4]: binds | binding [5]: binds | binding [6]: binds

Further lines, results first:

binding [3]: binds
B2: cold (unlabeled) E01 Adnectin (designed binder)
chain: B1 chain

binding [7]: binds | binding [8]: binds | binding [9]: binds | binding [10]: binds | binding [11]: binds
B4: cold (unlabeled) A02 Adnectin (designed binder)
chain: B3 chain
